Experimental data: doi:10.1101/798603

The chains behind the UniProt entries cited, without tags or fusion partners.
UniProt Q05775: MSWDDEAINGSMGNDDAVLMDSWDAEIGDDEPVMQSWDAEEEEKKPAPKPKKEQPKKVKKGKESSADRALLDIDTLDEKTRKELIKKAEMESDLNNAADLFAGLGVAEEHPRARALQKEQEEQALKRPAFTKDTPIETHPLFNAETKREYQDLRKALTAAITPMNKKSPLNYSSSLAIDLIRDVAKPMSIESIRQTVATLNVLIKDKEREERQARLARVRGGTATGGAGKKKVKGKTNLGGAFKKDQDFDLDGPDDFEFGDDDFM
UniProt P35189: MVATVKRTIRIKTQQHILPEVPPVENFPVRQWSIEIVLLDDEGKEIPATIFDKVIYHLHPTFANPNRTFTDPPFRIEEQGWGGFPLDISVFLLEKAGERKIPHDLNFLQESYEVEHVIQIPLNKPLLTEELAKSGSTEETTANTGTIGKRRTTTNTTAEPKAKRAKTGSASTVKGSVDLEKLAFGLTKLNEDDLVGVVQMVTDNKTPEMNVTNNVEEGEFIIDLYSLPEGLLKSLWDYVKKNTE
UniProt Q01159: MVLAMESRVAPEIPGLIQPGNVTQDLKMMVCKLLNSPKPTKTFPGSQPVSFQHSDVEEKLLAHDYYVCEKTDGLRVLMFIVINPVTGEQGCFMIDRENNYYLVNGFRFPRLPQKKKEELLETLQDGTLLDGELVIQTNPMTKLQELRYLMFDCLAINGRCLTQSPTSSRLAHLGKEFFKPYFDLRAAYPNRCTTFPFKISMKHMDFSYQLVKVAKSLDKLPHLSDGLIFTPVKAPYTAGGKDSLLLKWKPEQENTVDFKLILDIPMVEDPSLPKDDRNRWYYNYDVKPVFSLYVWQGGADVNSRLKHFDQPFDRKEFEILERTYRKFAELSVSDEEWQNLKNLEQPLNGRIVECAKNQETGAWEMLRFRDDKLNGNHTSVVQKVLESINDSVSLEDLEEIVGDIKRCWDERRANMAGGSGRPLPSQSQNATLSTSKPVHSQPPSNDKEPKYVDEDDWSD

T1: Rpb4-TAP (S. cerevisiae) (UniProt P20433)
T1 sequence: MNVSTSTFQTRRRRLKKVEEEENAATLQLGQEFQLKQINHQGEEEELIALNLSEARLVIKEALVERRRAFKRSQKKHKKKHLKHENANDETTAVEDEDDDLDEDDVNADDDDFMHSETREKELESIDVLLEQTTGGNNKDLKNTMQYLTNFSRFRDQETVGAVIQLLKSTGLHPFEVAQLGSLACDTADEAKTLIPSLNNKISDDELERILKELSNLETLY


Target: T1, Rpb4-TAP (S. cerevisiae)
Assay: affinity purification with mass spectrometry

Row | binding | Molecule
1 | no binding | Hcr1 (from UniProt Q05775 1-265)
2 | binds | Taf14 (from UniProt P35189 1-244)
3 | binds | Ceg1 (from UniProt Q01159 1-459) (enzyme)
4 | binds | Iwr1 (protein, UniProt Q07532 1-353) MSTISTTTAPEFIRVKRRRDEDSVQALLIDEGKRVKKQKFIFKLSKTVSSESYQSEQESSTPLLKLAHEDHRHFVLEQRKKSRRDSDDEKSQQRLAAEGSTVDDDGLPPEINQMVNDYLKLNKGVEKTERKKPSRKYFTGDSAKIASLPSLDYVFDIYHLEKIHDDEVARYNNEKNIGFVKIIEHIDLALDEESDPNEARSDDEDSNDENYYQNDYPEDEDDDRSILFGSEGEDIAALGEEIVIGVNKSRFSSWNDDKIQGSNGYHDVEEEYGDLFNRLGGKSDVLKSINSSNFIDLDGQEGEIEISDNEDDSDEGDDIEYPRNEFFPTDVDDPLAHHRDRIFHQLQKKINRS
5 | binds | Tfg2 (protein, UniProt P41896 1-400) MSSGSAGAPALSNNSTNSVAKEKSGNISGDEYLSQEEEVFDGNDIENNETKVYEESLDLDLERSNRQVWLVRLPMFLAEKWRDRNNLHGQELGKIRINKDGSKITLLLNENDNDSIPHEYDLELTKKVVENEYVFTEQNLKKYQQRKKELEADPEKQRQAYLKKQEREEELKKKQQQQKRRNNRKKFNHRVMTDRDGRDRYIPYVKTIPKKTAIVGTVCHECQVMPSMNDPNYHKIVEQRRNIVKLNNKERITTLDETVGVTMSHTGMSMRSDNSNFLKVGREKAKSNIKSIRMPKKEILDYLFKLFDEYDYWSLKGLKERTRQPEAHLKECLDKVATLVKKGPYAFKYTLRPEYKKLKEEERKATLGELADEQTGSAGDNAQGDAEADLEDEIEMEDVV
6 | binds | Cet1 (enzyme, UniProt O13297 1-549) MSYTDNPPQTKRALSLDDLVNHDENEKVKLQKLSEAANGSRPFAENLESDINQTETGQAAPIDNYKESTGHGSHSQKPKSRKSSNDDEETDTDDEMGASGEINFDSEMDFDYDKQHRNLLSNGSPPMNDGSDANAKLEKPSDDSIHQNSKSDEEQRIPKQGNEGNIASNYITQVPLQKQKQTEKKIAGNAVGSVVKKEEEANAAVDNIFEEKATLQSKKNNIKRDLEVLNEISASSKPSKYRNVPIWAQKWKPTIKALQSINVKDLKIDPSFLNIIPDDDLTKSVQDWVYATIYSIAPELRSFIELEMKFGVIIDAKGPDRVNPPVSSQCVFTELDAHLTPNIDASLFKELSKYIRGISEVTENTGKFSIIESQTRDSVYRVGLSTQRPRFLRMSTDIKTGRVGQFIEKRHVAQLLLYSPKDSYDVKISLNLELPVPDNDPPEKYKSQSPISERTKDRVSYIHNDSCTRIDITKVENHNQNSKSRQSETTHEVELEINTPALLNAFDNITNDSKEYASLIRTFLNNGTIIRRKLSSLSYEIFEGSKKVM
7 | binds | Rrp46 (protein, UniProt P53256 1-223) MSVQAEIGILDHVDGSSEFVSQDTKVICSVTGPIEPKARQELPTQLALEIIVRPAKGVATTREKVLEDKLRAVLTPLITRHCYPRQLCQITCQILESGEDEAEFSLRELSCCINAAFLALVDAGIALNSMCASIPIAIIKDTSDIIVDPTAEQLKISLSVHTLALEFVNGGKVVKNVLLLDSNGDFNEDQLFSLLELGEQKCQELVTNIRRIIQDNISPRLVV
8 | no binding | Lsm2 (protein, UniProt P38203 1-95) MLFFSFFKTLVDQEVVVELKNDIEIKGTLQSVDQFLNLKLDNISCTDEKKYPHLGSVRNIFIRGSTVRYVYLNKNMVDTNLLQDATRREVMTERK
9 | binds | Tfg1 (protein, UniProt P41895 1-735) MSRRNPPGSRNGGGPTNASPFIKRDRMRRNFLRMRMGQNGSNSSSPGVPNGDNSRGSLVKKDDPEYAEEREKMLLQIGVEADAGRSNVKVKDEDPNEYNEFPLRAIPKEDLENMRTHLLKFQSKKKINPVTDFHLPVRLHRKDTRNLQFQLTRAEIVQRQKEISEYKKKAEQERSTPNSGGMNKSGTVSLNNTVKDGSQTPTVDSVTKDNTANGVNSSIPTVTGSSVPPASPTTVSAVESNGLSNGSTSAANGLDGNASTANLANGRPLVTKLEDAGPAEDPTKVGMVKYDGKEVTNEPEFEEGTMDPLADVAPDGGGRAKRGNLRRKTRQLKVLDENAKKLRFEEFYPWVMEDFDGYNTWVGSYEAGNSDSYVLLSVEDDGSFTMIPADKVYKFTARNKYATLTIDEAEKRMDKKSGEVPRWLMKHLDNIGTTTTRYDRTRRKLKAVADQQAMDEDDRDDNSEVELDYDEEFADDEEAPIIDGNEQENKESEQRIKKEMLQANAMGLRDEEAPSENEEDELFGEKKIDEDGERIKKALQKTELAALYSSDENEINPYLSESDIENKENESPVKKEEDSDTLSKSKRSSPKKQQKKATNAHVHKEPTLRVKSIKNCVIILKGDKKILKSFPEGEWNPQTTKAVDSSNNASNTVPSPIKQEEGLNSTVAEREETPAPTITEKDIIEAIGDGKVNIKEFGKFIRRKYPGAENKKLMFAIVKKLCRKVGNDHMELKKE
10 | binds | Sua7 (protein, UniProt P29055 1-345) MMTRESIDKRAGRRGPNLNIVLTCPECKVYPPKIVERFSEGDVVCALCGLVLSDKLVDTRSEWRTFSNDDHNGDDPSRVGEASNPLLDGNNLSTRIGKGETTDMRFTKELNKAQGKNVMDKKDNEVQAAFAKITMLCDAAELPKIVKDCAKEAYKLCHDEKTLKGKSMESIMAASILIGCRRAEVARTFKEIQSLIHVKTKEFGKTLNIMKNILRGKSEDGFLKIDTDNMSGAQNLTYIPRFCSHLGLPMQVTTSAEYTAKKCKEIKEIAGKSPITIAVVSIYLNILLFQIPITAAKVGQTLQVTEGTIKSGYKILYEHRDKLVDPQLIANGVVSLDNLPGVEKK
11 | binds | Dst1 (TFIIS) (protein, UniProt P07273 1-309) MDSKEVLVHVKNLEKNKSNDAAVLEILHVLDKEFVPTEKLLRETKVGVEVNKFKKSTNVEISKLVKKMISSWKDAINKNKRSRQAQQHHQDHAPGNAEDKTTVGESVNGVQQPASSQSDAMKQDKYVSTKPRNSKNDGVDTAIYHHKLRDQVLKALYDVLAKESEHPPQSILHTAKAIESEMNKVNNCDTNEAAYKARYRIIYSNVISKNNPDLKHKIANGDITPEFLATCDAKDLAPAPLKQKIEEIAKQNLYNAQGATIERSVTDRFTCGKCKEKKVSYYQLQTRSADEPLTTFCTCEACGNRWKFS
12 | binds | Nab3 (protein, UniProt P38996 1-802) MSDENHNSDVQDIPSPELSVDSNSNENELMNNSSADDGIEFDAPEEEREAEREEENEEQHELEDVNDEEEEDKEEKGEENGEVINTEEEEEEEHQQKGGNDDDDDDNEEEEEEEEDDDDDDDDDDDDEEEEEEEEEEGNDNSSVGSDSAAEDGEDEEDKKDKTKDKEVELRRETLEKEQKDVDEAIKKITREENDNTHFPTNMENVNYDLLQKQVKYIMDSNMLNLPQFQHLPQEEKMSAILAMLNSNSDTALSVPPHDSTISTTASASATSGARSNDQRKPPLSDAQRRMRFPRADLSKPITEEEHDRYAAYLHGENKITEMHNIPPKSRLFIGNLPLKNVSKEDLFRIFSPYGHIMQINIKNAFGFIQFDNPQSVRDAIECESQEMNFGKKLILEVSSSNARPQFDHGDHGTNSSSTFISSAKRPFQTESGDMYNDDNGAGYKKSRRHTVSCNIFVKRTADRTYAIEVFNRFRDGTGLETDMIFLKPRMELGKLINDAAYNGVWGVVLVNKTHNVDVQTFYKGSQGETKFDEYISISADDAVAIFNNIKNNRNNSRPTDYRAMSHQQNIYGAPPLPVPNGPAVGPPPQTNYYQGYSMPPPQQQQQQPYGNYGMPPPSHDQGYGSQPPIPMNQSYGRYQTSIPPPPPQQQIPQGYGRYQAGPPPQPPSQTPMDQQQLLSAIQNLPPNVVSNLLSMAQQQQQQPHAQQQLVGLIQSMQGQAPQQQQQQLGGYSSMNSSSPPPMSTNYNGQNISAKPSAPPMSHQPPPPQQQQQQQQQQQQQQQQPAGNNVQSLLDSLAKLQK

These are yes or no findings as the source states them, for the method shown. Binding seen in cells or lysates may run through a third protein. These calls come from enrichment with a bait or labelling near it, and not all partners need be listed. A no says only that the protein was not detected with the bait.
